Out of some 320,000 compounds screened, about 2,100 (0.66%) were called active. This list was built around the results that the source calls inconclusive (neither active nor inactive); the mix of calls is not that of the screen. The call rests on the fitted dose curve; in most records, active means well fitted inhibition curve with a large enough effect in the signal ratio, with a control signal flat (not every such curve was filed as active); inconclusive means small, poorly fitted or top-dose-only effect, or effect the other way, or a change in a side signal; inactive means flat fitted curve, though single readings scatter; the % refers to the signal ratio. A potency beside an inconclusive call is a rough fit, not a confirmed value.
Assay: qHTS Assay for Lipid Storage Modulators in Drosophila S3 Cells
Conditions: BODIPY lipid droplet fluorescence, 18-24 h, cells fed with added oleic acid; lipid storage change, negative = inhibition: at 46.1 µM (top of the series) unless noted
Summary of the method: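 Laser-scanning cytometry quantifies lipid droplet accumulation (500–530 nm total intensity; droplet/cell object ratio) in oleic acid-fed (400 uM added) Drosophila S3 cells treated with a concentration series. 20 uM Triacsin C defined 100% inhibition.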
On the % scale 0 is the no-effect control and ±100 the full control effect; potency means the concentration at half of the fitted maximal effect.

| Structure (SMILES) | lipid storage change, negative = inhibition | Potency |
| --- | --- | --- |
| CCOC(=O)c1ccc(-n2c(CCC(=O)O)ccc2-c2ccc(F)cc2)cc1 | inconclusive: 11% |  |
| O=C(NC(Cc1c[nH]c2ccccc12)C(=O)O)/C(=C/c1ccc(F)cc1)NC(=O)c1ccccc1 (centres undefined) | inconclusive: -12.9% |  |
| CCOC(=O)N1CCN(C(=O)C2CCC(=O)N2C(C)C)CC1 (centres undefined) | inconclusive: -38% |  |
| O=C(COC(=O)CCC(=O)c1ccc(F)cc1)Nc1ccc(N2CCOCC2)cc1 |  | inconclusive: 0.82 µM [cytotoxic, full curve] |
| CN(C)c1ccc(/C=N/NC(=O)c2ccco2)cc1 | inconclusive: 15.4% |  |
| CC1CCN(C(=O)C2CCN(c3nnc(-n4cccc4)s3)CC2)CC1 | inconclusive: -22.7% |  |
| CC(C)(C)c1ccc(C(=O)Nc2ccc(Oc3cccnc3)nc2)cc1 |  | inconclusive: 29.1 µM [cytotoxic, single point] |
| CN1CCN(c2ccccc2NC(=O)c2cc(Br)ccc2Cl)CC1 | inconclusive: -22.2% |  |
| CC(C)(C)OC(=O)N1Cc2[nH]c3ccccc3c2C[C@@H]1C(=O)O | inconclusive: 7.58% |  |
| COc1ccc2c(=O)cc(-c3ccccc3)n(C)c2c1 | inconclusive: 0.854% |  |
| COc1ccc(-n2cnnc2SCC(=O)Nc2cc(S(=O)(=O)N3CCCCC3)ccc2C)cc1 | inconclusive: -3.73% |  |
| Cc1ccc(CNC(=O)CSc2nc3ccccc3[nH]2)cc1 |  | inconclusive: 6.51 µM [activator, single point] |
| C/C(=N\Nc1cccc2cccnc12)c1ccccc1O | inconclusive: 12.5% |  |
| C=CCn1c(COc2ccc(F)cc2)nnc1SCC(=O)c1c[nH]c2c(CC)cccc12 |  | inconclusive: 29.1 µM [falling, single point] |
| CCOC(=O)Cc1csc(NC(=O)C2C3C=CC(C3)C2C(=O)O)n1 (centres undefined) |  | inconclusive: 18.4 µM [falling, single point] |
| O=c1c(Br)c(Br)cnn1-c1ccccc1 | inconclusive: -90.3% |  |
| Cc1ccccc1N1C(=O)C2C3CC(=O)C(c4ccccc43)C2C1=O (centres undefined) |  | inconclusive: 3.26 µM [falling, single point] |
| COc1ccc(CCNC(=O)CC2Nc3ccccc3NC2=O)cc1OC (centres undefined) | inconclusive: 32.4% |  |
| CCC(C)c1ccccc1NC(=O)COc1ccc(-c2nnco2)cc1 (centres undefined) | inconclusive |  |
| O=C(Nc1nc2ccc(S(=O)(=O)N3CCCC3)cc2s1)c1ccco1 | inconclusive: 4.49% |  |
| COc1ccccc1CCNC(=O)C(=O)NCC1CCCN1S(=O)(=O)c1ccccc1 (centres undefined) | inconclusive: -65% |  |
| O=C(CSc1cccc[n+]1[O-])N1CCc2ccccc21 | inconclusive: 9.18% |  |
| CN(C)C(CNC(=O)c1ccc(NS(=O)(=O)c2ccc3[nH]c(=O)[nH]c3c2)cc1)c1ccccc1 (centres undefined) | inconclusive |  |
| COc1ccc(NC(=O)c2ccc(-c3ccc(-c4noc(C)n4)cc3C)cc2)cc1N1CCN(C)CC1 |  | inconclusive: 25.9 µM [cytotoxic, single point] |
| COc1ccc(C2/C(=C(/O)c3ccc4c(c3)CC(C)O4)C(=O)C(=O)N2CCN2CCOCC2)cc1OC (centres undefined) |  | inconclusive: 1.46 µM [activator, full curve] |

Structures above containing bromine:

| Structure (SMILES) | lipid storage change, negative = inhibition | Potency |
| --- | --- | --- |
| CN1CCN(c2ccccc2NC(=O)c2cc(Br)ccc2Cl)CC1 | inconclusive: -22.2% |  |
| O=c1c(Br)c(Br)cnn1-c1ccccc1 | inconclusive: -90.3% |  |

Part of the list above, as comma-separated lines:
Structure (SMILES),"lipid storage change, negative = inhibition",Potency
O=C(Nc1nc2ccc(S(=O)(=O)N3CCCC3)cc2s1)c1ccco1,inconclusive: 4.49%,
COc1ccccc1CCNC(=O)C(=O)NCC1CCCN1S(=O)(=O)c1ccccc1 (centres undefined),inconclusive: -65%,

Carrying on:

| Structure (SMILES) | lipid storage change, negative = inhibition | Potency |
| --- | --- | --- |
| O=C(CSc1nncs1)N1CCN(S(=O)(=O)c2ccccc2)CC1 | inconclusive: -37.8% |  |
| Cc1c(NC(=O)c2cc(-c3ccccc3O)on2)c(=O)n(-c2ccccc2)n1C |  | inconclusive: 0.291 µM [activator, partial curve, poor fit] |
| Cc1c(CCO)c(=O)n(-c2ccccc2)n1S(=O)(=O)c1c(Cl)cc(Cl)cc1Cl | inconclusive: -23% |  |
| CC(C)Nc1nnc(SCC(=O)N2CCN(C(=O)c3ccco3)CC2)s1 | inconclusive: 13.2% |  |
| CCN1CCN(Cc2ccc(NC(=O)c3ccc(C)c(NC(=O)c4cccc5[nH]ccc45)c3)cc2C(F)(F)F)CC1 | inactive |  |
| Cc1ccc(C(=O)Nc2nnc(S(=O)(=O)N3CCCCCC3)s2)cc1 |  | inconclusive: 20.6 µM [activator, single point] |
| COC(=O)C1=C(O)/C(=C\c2ccc(OCC(=O)Nc3ccccc3)cc2)N=C1C |  | inconclusive: 3.26 µM [activator, full curve] |
| CN(C)/C=N/c1sc2c(c1C(N)=O)CCCC2 | inconclusive: 7.67% |  |
| O=C(O)COc1ccc(/C=N/NC(=O)C(O)(c2ccccc2)c2ccccc2)cc1 | inactive |  |
| O=C(CSCc1ccc(Br)cc1)N1CCCC1 | inconclusive: -20.5% |  |
| CN1CCN(c2ccccc2NC(=O)c2ccc(N3CCCC3)c([N+](=O)[O-])c2)CC1 | inconclusive: -12.6% |  |
| Cc1ccc(CNC(=O)c2ccc(NC(=O)C3=CSCCO3)cc2)cc1 | inconclusive: 118% |  |
| Cc1cc(N2CCN(C(=O)c3ccco3)CC2)nc(-c2ccccc2)n1 | inconclusive: -2.98% [cytotoxic] |  |
| O=c1[nH]c2ccccc2nc1/C=C/c1ccc(F)cc1 |  | active: 9.2 µM |
| CC(/C=N/Nc1nc(N2CCCCC2)nc(N2CCCCC2)n1)=C\c1ccccc1 | inconclusive: 21.4% |  |
| Cc1ccc(NC(=O)OCc2cccs2)cc1 | inconclusive: -1.4% |  |
| Cc1c(C(=O)N(C)CC(=O)Nc2cccc(F)c2)oc2c(Cl)cccc12 | inconclusive |  |
| Cc1ccc(/C=N/NC(=O)c2nnn(-c3nonc3N)c2CN(C)C)o1 |  | inconclusive: 0.326 µM [falling, partial curve] |
| COc1ccc2cc(CO)n(C)c2c1 | inconclusive: 15.6% |  |
| CCN(c1ccc(OC)cc1)S(=O)(=O)c1nnc(NC(=O)C(C)C)s1 | inconclusive: -34% |  |
| COc1ccc(C(=O)/C=C/NCc2ccc(F)cc2)cc1OC | inconclusive: -40.8% |  |
| Cc1[nH]c(C)c(S(=O)(=O)N(C)Cc2ccccc2)c1C(=O)N1CCCCC1 | inconclusive: -36.2% |  |
| CCOC(CNC(=O)c1ccc(N2CCc3ccccc32)c([N+](=O)[O-])c1)OCC |  | inconclusive: 29.1 µM [falling, single point] |
| COc1cccc(C(=O)Nc2ccc(C(=O)c3ccccc3)cc2)c1 |  | inconclusive: 29.1 µM [falling, single point] |
